Measurements reported in patent US20100135951A1.
These are yes or no findings as the source states them, for the method shown. In cells and extracts the contact can be indirect. Some results given as binding are weak or reduced against the parent protein; the word gives no strength.

Chains of the proteins cited; added tags and fusions are not shown. Residues count along the entry.
UniProt O00220, residues 24-468: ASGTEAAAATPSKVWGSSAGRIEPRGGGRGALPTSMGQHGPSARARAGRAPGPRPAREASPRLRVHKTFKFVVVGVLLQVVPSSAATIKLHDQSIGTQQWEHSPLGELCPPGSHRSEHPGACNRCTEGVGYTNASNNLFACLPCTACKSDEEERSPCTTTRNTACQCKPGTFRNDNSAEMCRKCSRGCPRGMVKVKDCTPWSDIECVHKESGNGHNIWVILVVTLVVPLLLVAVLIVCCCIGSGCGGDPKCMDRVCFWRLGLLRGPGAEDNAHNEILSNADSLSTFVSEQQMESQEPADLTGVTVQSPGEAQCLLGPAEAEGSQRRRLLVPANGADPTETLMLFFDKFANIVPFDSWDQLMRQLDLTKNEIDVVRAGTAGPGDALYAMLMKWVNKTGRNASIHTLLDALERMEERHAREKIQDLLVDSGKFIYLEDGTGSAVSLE
UniProt Q13158: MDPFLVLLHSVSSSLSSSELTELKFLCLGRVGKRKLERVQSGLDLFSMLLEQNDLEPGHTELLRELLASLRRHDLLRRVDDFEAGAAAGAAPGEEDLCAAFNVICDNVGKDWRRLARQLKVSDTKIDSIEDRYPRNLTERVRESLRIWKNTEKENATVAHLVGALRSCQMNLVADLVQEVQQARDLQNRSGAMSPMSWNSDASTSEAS

Molecular target: TRAIL-R1 (human) (UniProt O00220)
Assay: co-immunoprecipitation from MDA231 cells after 2E12 treatment, Western blot

binding: binds
Substance: FADD (from UniProt Q13158 1-208)
